Experimental data as given in ChEMBL document CHEMBL4303122, “Identification of potential treatments for COVID-19 through artificial intelligence-enabled phenomic analysis of human cells infected with SARS-CoV-2” (2020).
In all, about 1,600 compounds were measured (“Hit score”: median about 0.13, highest 2% from about 0.46 on). The list shows a part of the results.

Each compound was assayed on SARS-CoV-2 (assay: Antiviral activity against SARS-CoV-2 (USA-WA1/2020 strain) measured by imaging in HRCE cells at MOI 0.4 after 96 hrs (reported as hit score from 0-1 for on-disease vs off-disease activity: scores >0.6 considered hits)).
Format: functional, Homo sapiens

SMILES	Hit score
CC(C)OC(=O)CCC/C=C\C[C@@H]1[C@@H](CC[C@@H](O)CCc2ccccc2)[C@H](O)C[C@@H]1O [LATANOPROST]	0.04489
COc1cc(C)c(/C=C/C(C)=C/C=C/C(C)=C/C(=O)O)c(C)c1C [ACITRETIN]	0.457
CN(C)CCC=C1c2ccccc2C=Cc2ccccc21 [CYCLOBENZAPRINE]	-0.007076
CN(C)CCc1c[nH]c2ccc(C[C@H]3COC(=O)N3)cc12 [ZOLMITRIPTAN]	0.1454
COc1ccc(-c2noc(CC(=O)O)c2-c2ccc(OC)cc2)cc1 [MOFEZOLAC]	0.2188
NS(=O)(=O)c1cc2c(cc1Cl)NCNS2(=O)=O [HYDROCHLOROTHIAZIDE]	0.03672
C[N+]1(C)CCC(=C(c2ccccc2)c2ccccc2)CC1	0.06957
C[N+]12CCC(CC1)C(OC(=O)C(O)(c1ccccc1)c1ccccc1)C2 (stereo unspecified)	0.116
Cc1ccc(Cl)c(OCC(O)CNC(C)(C)C)c1 (stereo unspecified) [BUPRANOLOL]	0.4669
CC[C@]1(O)C[C@H]2CN(CCc3c([nH]c4ccccc34)[C@@](C(=O)OC)(c3cc4c(cc3OC)N(C=O)[C@H]3[C@@](O)(C(=O)OC)[C@H](OC(C)=O)[C@]5(CC)C=CCN6CC[C@]43[C@@H]65)C2)C1 [VINCRISTINE]	0.4904
CC(c1cc2ccccc2s1)N(O)C(N)=O (stereo unspecified) [ZILEUTON]	0.2291
C[C@@H]1CN(c2c(F)c(N)c3c(=O)c(C(=O)O)cn(C4CC4)c3c2F)C[C@H](C)N1 [SPARFLOXACIN]	0.1623
C[C@@H]1O[C@@H]1P(=O)(O)O [FOSFOMYCIN]	0.1171
NCc1ccccc1CC(=O)N[C@@H]1C(=O)N2C(C(=O)O)=C(CSc3nnnn3CC(=O)O)CS[C@H]12 [CEFORANIDE]	0.2346
CCN1CCN(C(=O)N[C@@H](C(=O)N[C@@H]2C(=O)N3[C@@H]2SC(C)(C)[C@@H]3C(=O)O)c2ccccc2)C(=O)C1=O [PIPERACILLIN]	0.2065
CC(C)CN(C[C@@H](O)[C@H](Cc1ccccc1)NC(=O)O[C@H]1CCOC1)S(=O)(=O)c1ccc(N)cc1	0.09042
COc1cc(C)nc(-n2nc(C)cc2OC)n1 [EPIRIZOLE]	0.2407
CS(=O)(=O)Nc1ccc([N+](=O)[O-])cc1Oc1ccccc1 [NIMESULIDE]	0.223
CCn1cc(C(=O)O)c(=O)c2cc(F)c(N3CCNC(C)C3)c(F)c21 (stereo unspecified) [LOMEFLOXACIN]	0.1087
CC(C)(C)OC(=O)N[C@H]1CCCCC/C=C\[C@@H]2C[C@@]2(C(=O)NS(=O)(=O)C2CC2)NC(=O)[C@@H]2C[C@@H](OC(=O)N3Cc4cccc(F)c4C3)CN2C1=O [DANOPREVIR]	0.1271
CC(=O)OC[C@H]1O[C@@H](n2ccc(=O)[nH]c2=O)[C@H](OC(C)=O)[C@@H]1OC(C)=O [URIDINE TRIACETATE]	0.05866
Cc1c(Cl)cccc1Nc1ncccc1C(=O)O [CLONIXIN]	0.1557
Cc1nc(Nc2ncc(C(=O)Nc3c(C)cccc3Cl)s2)cc(N2CCN(CCO)CC2)n1.O [DASATINIB]	-0.4014

SMILES	Hit score
Cc1ccc(/C(=C\CN2CCCC2)c2ccccn2)cc1 [TRIPROLIDINE]	0.01384
CSCC[C@H](N)C(=O)O [METHIONINE]	0.04747
CC(C)(C)NCC(O)c1ccccc1Cl (stereo unspecified) [TULOBUTEROL]	-0.01366
C[C@H]1[C@H](NC(=O)/C(=N\OC(C)(C)C(=O)O)c2csc(N)n2)C(=O)N1S(=O)(=O)O [AZTREONAM]	0.135
CNCCC=C1c2ccccc2CCc2ccccc21 [NORTRIPTYLINE]	0.2268
CN(N=O)C(=O)N[C@@H](C=O)[C@@H](O)[C@H](O)[C@H](O)CO [STREPTOZOCIN]	0.07116
CCc1cc(C(N)=S)ccn1 [ETHIONAMIDE]	0.1784
CC(=O)Nc1c(I)c(NC(C)=O)c(I)c(C(=O)O)c1I [DIATRIZOIC ACID]	-0.01268
CCCC(=O)O[C@]1(C(=O)CO)CC[C@H]2[C@@H]3CCC4=CC(=O)CC[C@]4(C)[C@H]3[C@@H](O)C[C@@]21C [HYDROCORTISONE BUTYRATE]	-0.05198
NC(=O)c1ncn([C@@H]2O[C@H](CO)[C@@H](O)[C@H]2O)c1O [MIZORIBINE]	0.1019
Cc1cn([C@@H]2C[C@@H](O)[C@H](CO)O2)c(=O)[nH]c1=O [TELBIVUDINE]	0.09197
CN(C)C(=S)SSC(=S)N(C)C [THIRAM]	0.2497
CC(C)(C)NCC(O)CSc1nc(-c2ccc(C(N)=O)s2)cs1 (stereo unspecified) [AROTINOLOL]	0.3775
CCOc1cc2ncc(C#N)c(Nc3ccc(OCc4ccccn4)c(Cl)c3)c2cc1NC(=O)/C=C/CN(C)C [NERATINIB]	0.08739
CN1CCN(C(c2ccccc2)c2ccc(Cl)cc2)CC1 (stereo unspecified) [CHLORCYCLIZINE]	0.05757
CC(C)C[C@H](NC(=O)[C@@H](O)[C@H](N)Cc1ccccc1)C(=O)O [UBENIMEX]	0.1422
CNC(=C[N+](=O)[O-])NCCSCc1ccc(CN(C)C)o1 [RANITIDINE]	0.2229
CC(N)Cc1cccc(O)c1 (stereo unspecified)	0.2051
COC(=O)C[C@](O)(CCC(C)(C)O)C(=O)O[C@@H]1C(OC)=C[C@]23CCCN2CCc2cc4c(cc2[C@H]13)OCO4 [HARRINGTONINE]	0.07403
C=C1C[C@@H]2[C@H](CC[C@]3(C)C(=O)CC[C@@H]23)[C@@]2(C)C=CC(=O)C=C12 [EXEMESTANE]	0.04062
CCOC(=O)Nc1ccc2c(c1)N(C(=O)CCN1CCOCC1)c1ccccc1S2 [MORICIZINE]	0.1084
CNC[C@H](O)c1cccc(O)c1 [PHENYLEPHRINE]	0.03283
N[C@@H]1CN(c2c(F)cc3c(=O)c(C(=O)O)cn([C@@H]4C[C@@H]4F)c3c2Cl)CC12CC2 [SITAFLOXACIN ANHYDROUS]	0.1303

Shown in markdown: part of the list above

| SMILES | Hit score |
| --- | --- |
| Cc1ccc(/C(=C\CN2CCCC2)c2ccccn2)cc1 [TRIPROLIDINE] | 0.01384 |
| CSCC[C@H](N)C(=O)O [METHIONINE] | 0.04747 |
| CC(C)(C)NCC(O)c1ccccc1Cl (stereo unspecified) [TULOBUTEROL] | -0.01366 |
| C[C@H]1[C@H](NC(=O)/C(=N\OC(C)(C)C(=O)O)c2csc(N)n2)C(=O)N1S(=O)(=O)O [AZTREONAM] | 0.135 |
| CNCCC=C1c2ccccc2CCc2ccccc21 [NORTRIPTYLINE] | 0.2268 |
| CN(N=O)C(=O)N[C@@H](C=O)[C@@H](O)[C@H](O)[C@H](O)CO [STREPTOZOCIN] | 0.07116 |
| CCc1cc(C(N)=S)ccn1 [ETHIONAMIDE] | 0.1784 |
| CC(=O)Nc1c(I)c(NC(C)=O)c(I)c(C(=O)O)c1I [DIATRIZOIC ACID] | -0.01268 |
| CCCC(=O)O[C@]1(C(=O)CO)CC[C@H]2[C@@H]3CCC4=CC(=O)CC[C@]4(C)[C@H]3[C@@H](O)C[C@@]21C [HYDROCORTISONE BUTYRATE] | -0.05198 |
| NC(=O)c1ncn([C@@H]2O[C@H](CO)[C@@H](O)[C@H]2O)c1O [MIZORIBINE] | 0.1019 |
| Cc1cn([C@@H]2C[C@@H](O)[C@H](CO)O2)c(=O)[nH]c1=O [TELBIVUDINE] | 0.09197 |
| CN(C)C(=S)SSC(=S)N(C)C [THIRAM] | 0.2497 |
| CC(C)(C)NCC(O)CSc1nc(-c2ccc(C(N)=O)s2)cs1 (stereo unspecified) [AROTINOLOL] | 0.3775 |
